Results published in patent publication US20040253247A1.
These are yes or no findings as the source states them, for the method shown. Some entries that bind do so weakly or less than the wild type. For some assays here: Where a sequence is shown, tags or fusion partners need not be part of it.

The chains behind the UniProt entries cited, without tags or fusion partners. Residues count along the entry.
UniProt P49065, residues 25-608: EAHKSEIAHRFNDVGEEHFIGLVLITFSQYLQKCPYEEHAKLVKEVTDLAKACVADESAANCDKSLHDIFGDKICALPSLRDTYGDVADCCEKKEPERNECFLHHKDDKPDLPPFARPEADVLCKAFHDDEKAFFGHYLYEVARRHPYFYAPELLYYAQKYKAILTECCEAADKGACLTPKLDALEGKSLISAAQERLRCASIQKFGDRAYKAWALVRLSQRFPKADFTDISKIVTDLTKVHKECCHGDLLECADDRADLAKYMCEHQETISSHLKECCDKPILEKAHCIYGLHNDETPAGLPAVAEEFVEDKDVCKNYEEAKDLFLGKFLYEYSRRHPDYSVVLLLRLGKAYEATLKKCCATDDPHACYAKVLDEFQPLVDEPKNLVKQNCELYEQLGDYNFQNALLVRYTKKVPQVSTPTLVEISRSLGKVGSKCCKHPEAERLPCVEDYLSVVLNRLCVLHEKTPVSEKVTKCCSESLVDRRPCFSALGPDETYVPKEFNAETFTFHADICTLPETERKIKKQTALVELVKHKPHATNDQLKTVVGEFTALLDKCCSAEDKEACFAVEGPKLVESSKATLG
UniProt P02770, residues 25-608: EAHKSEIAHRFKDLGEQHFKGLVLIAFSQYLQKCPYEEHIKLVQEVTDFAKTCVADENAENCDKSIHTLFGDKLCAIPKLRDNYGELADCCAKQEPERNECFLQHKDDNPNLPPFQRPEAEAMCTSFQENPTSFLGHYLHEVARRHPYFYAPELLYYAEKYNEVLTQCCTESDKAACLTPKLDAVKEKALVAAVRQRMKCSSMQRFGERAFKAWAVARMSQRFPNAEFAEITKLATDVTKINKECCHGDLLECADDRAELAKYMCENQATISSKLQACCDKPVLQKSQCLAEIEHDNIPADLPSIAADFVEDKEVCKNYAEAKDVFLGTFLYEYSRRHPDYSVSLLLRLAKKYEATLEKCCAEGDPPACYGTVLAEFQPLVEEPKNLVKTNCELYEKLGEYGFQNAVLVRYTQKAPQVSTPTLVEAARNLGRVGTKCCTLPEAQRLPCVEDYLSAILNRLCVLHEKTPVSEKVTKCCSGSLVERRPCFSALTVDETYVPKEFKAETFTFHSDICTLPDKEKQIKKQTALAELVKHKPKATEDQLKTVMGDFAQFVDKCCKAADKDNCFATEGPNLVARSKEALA
UniProt P02768, residues 25-609: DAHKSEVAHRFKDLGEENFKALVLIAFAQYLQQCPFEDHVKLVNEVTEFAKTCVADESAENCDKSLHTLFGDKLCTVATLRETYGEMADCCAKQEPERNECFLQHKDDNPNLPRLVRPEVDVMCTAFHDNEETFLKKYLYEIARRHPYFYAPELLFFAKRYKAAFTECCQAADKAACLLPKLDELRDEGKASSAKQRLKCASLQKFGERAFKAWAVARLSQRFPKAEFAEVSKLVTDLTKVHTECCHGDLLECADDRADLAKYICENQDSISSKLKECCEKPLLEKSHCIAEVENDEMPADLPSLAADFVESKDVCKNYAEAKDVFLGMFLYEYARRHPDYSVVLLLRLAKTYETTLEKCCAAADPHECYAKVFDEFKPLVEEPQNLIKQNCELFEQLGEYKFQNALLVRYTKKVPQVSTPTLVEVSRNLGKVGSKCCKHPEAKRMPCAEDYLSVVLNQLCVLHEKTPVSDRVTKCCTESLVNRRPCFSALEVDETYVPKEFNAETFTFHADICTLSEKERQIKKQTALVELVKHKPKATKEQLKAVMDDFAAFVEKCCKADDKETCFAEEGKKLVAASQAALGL

Legend:
[1] = molecular target: IgG-Fc [IgG part: P01857]; experiment: phage selection on IgG-Fc; not individually assayed (N/A)
rabbit albumin (rabbit) = rabbit albumin (rabbit) (UniProt P49065); experiment: phage ELISA
[2] = molecular target: IgG-Fc [IgG part: P01857]; experiment: general note of Table I; phage clone, M13/gIII display, ALA scan, EC50 in its own row
rat albumin (rat) = rat albumin (rat) (UniProt P02770); experiment: phage ELISA
human albumin (human) = human albumin (human) (UniProt P02768); experiment: phage ELISA

Binder | binding [1] | binding (rabbit albumin (rabbit)) | binding (rat albumin (rat)) | further results
KEASCSYWLGELVWCEDTME | binds |  |  | 
EMRDCSWHLGELVWCAHMEG | binds |  |  | 
KEASCSYWLGELVWCDWMNG | binds |  |  | 
KSCSELHWLLVEECLF [BD] |  | binds |  | 
GEADCAWHLGELVWCTPMDL | binds |  |  | 
WEADCAWHLGELAWCTKVEE |  |  |  | binding [2]: binds
GRMECAWHQGELVWCTPTLE | binds |  |  | 
GVADCAWHLGELVWCTERED | binds |  |  | 
WEADCAAHLGELVWCTKVEE |  |  |  | binding [2]: binds
GTMECSWHQGELVWCTPTLA | binds |  |  | 
KEASCSYWLGELVWCDDTPV | binds |  |  | 
GEQDCSWHLGELVWCTPMEV | binds |  |  | 
QMHMMDICLPKWGCLWGDTS [RB-B9] |  | binds | binds | binding (human albumin (human)): binds
KEASCSYWLGELVWCSDLWE | binds |  |  | 
WEADCAWHLAELVWCTKVEE |  |  |  | binding [2]: binds
AVSKCSFHMGELVWCSDVMN | binds |  |  | 
WEAACAWHLGELVWCTKVEE |  |  |  | binding [2]: binds
GMRDCSYHLGELVWCSDMEL | binds |  |  | 
NRQMEDICLPQWGCLWGDDF [RB-H6] |  | binds | binds | binding (human albumin (human)): binds
KMGRVDFCLPKWGCLWGDEL [RB-R13] |  | binds | binds | 

Binder | binding [1] | binding (rabbit albumin (rabbit)) | binding (rat albumin (rat)) | further results
QRPIMDFCLPKWGCLWEDGF [RB-R7] |  | binds | binds | 
WEPDCAWHLGELVWCTKVEE |  |  |  | binding [2]: binds
MDELAFYCGIWECLMHQEQK [BB] |  | binds |  | 
GENWCDSTLMAYDLCGQVNM [BA] |  | binds |  | 
QRDMGDICLPRWGCLWEDGV [HC-R10] |  | binds | binds | binding (human albumin (human)): binds
QGYMVDFCLPRWGCLWGDAN [RB-R12] |  | binds | binds | 
WEADCAWHLGEAVWCTKVEE |  |  |  | binding [2]: binds
QWHMEDICLPQWGCLWGDVL [RB-B5] |  | binds | binds | binding (human albumin (human)): binds
WAADCAWHLGELVWCTKVEE |  |  |  | binding [2]: binds
KEASCSYWLGELVWCDDYGE | binds |  |  | 
NQVSCSYSRGELVWCSKQSQ | binds |  |  | 
RWQTEDVCLPKWGCLFGDGV [RB-B1] |  | binds | binds | 
QRHMMDFCLPKWGCLWGDGY [RB-R4] |  | binds | binds | 
KEASCSYWLGELVWCEDMME | binds |  |  | 
LRLMDNICLPRWGCLWDDGF [RB-B7] |  | binds | binds | binding (human albumin (human)): binds
WEADCAWHAGELVWCTKVEE |  |  |  | binding [2]: binds
LWAMEDICLPKWGCLWEDDF [RB-B4] |  | binds | binds | binding (human albumin (human)): binds
QGDFWDICLPRWGCLSGEGY [RB-B10] |  | binds | binds | 
QSYMEDICLPRWGCLSDDAS [RB-B3] |  | binds | binds | binding (human albumin (human)): binds
KEAMCSYWLGELVWCESDMP | binds |  |  | 

Binder | binding [1] | binding (rabbit albumin (rabbit)) | binding (rat albumin (rat)) | further results
WEADCAWHLGALVWCTKVEE |  |  |  | binding [2]: binds
WEAACSWHLGELVWCTKVEE |  |  |  | binding [2]: binds
QGGMGDFCLPQWGCLWGEDL [RB-R17] |  | binds | binds | 
LRIFEDICLPKWGCLWGEGF [RB-B14] |  | binds | binds | binding (human albumin (human)): binds
QWQVMDICLPRWGCLWADEY [RB-B11] |  | binds | binds | binding (human albumin (human)): binds
WRGGCSWHMGELVWCEHDME | binds |  |  | 
QSQLEDFCLPKWGCLWGDGF [RB-R15] |  | binds | binds | 
RVASCAWHLGELVWCDGLDG | binds |  |  | 
WEADCAWALGELVWCTKVEE |  |  |  | binding [2]: binds
AEADCAWHLGELVWCTKVEE |  |  |  | binding [2]: binds
HRLVEDICLPRWGCLWGNDF [RB-B16] |  | binds | binds | binding (human albumin (human)): binds
LIFMEDVCLPQWGCLWEDGV [RB-R16] |  | binds | binds | binding (human albumin (human)): binds
ERQMVDFCLPKWGCLWGDGF [RB-R11] |  | binds | binds | 
QGLIGDICLPRWGCLWGDSV [RB-B12] |  | binds | binds | binding (human albumin (human)): binds
VAEPCAYHLGELVWCEVLKG | binds |  |  | 
DLCDVDFCWF [BC] |  | binds |  | 
QWQMENVCLPKWGCLWEELD [RB-B6] |  | binds | binds | binding (human albumin (human)): binds
GSWECAYHLGELVWCETGSG | binds |  |  | 
EWDVCLPHWGCLWDG [RBC-R16] |  | binds | binds | 
